Measured values from PubChem BioAssay AID2551 (National Center for Advancing Translational Sciences (NCATS), 2010).
The campaign covered roughly 310,000 compounds. About 17,000 (5.5%) were called active. Inconclusive means that the source gave no clear call. Such entries were picked first, then a sample of the others. Calls follow the shape of the dose curve; as a rule, active = well fitted inhibition curve with a large enough effect; inconclusive = small, poorly fitted or top-dose-only effect, or effect the other way; inactive = no such curve, though single readings can be large or run the other way. Potencies of inconclusive entries are doubtful fits and often do not repeat.

Sequences of proteins named here, by UniProt entry; tags and fusion partners are left off. A change or cut given only in a name is not applied to a line headed by its entry.
UniProt P51450: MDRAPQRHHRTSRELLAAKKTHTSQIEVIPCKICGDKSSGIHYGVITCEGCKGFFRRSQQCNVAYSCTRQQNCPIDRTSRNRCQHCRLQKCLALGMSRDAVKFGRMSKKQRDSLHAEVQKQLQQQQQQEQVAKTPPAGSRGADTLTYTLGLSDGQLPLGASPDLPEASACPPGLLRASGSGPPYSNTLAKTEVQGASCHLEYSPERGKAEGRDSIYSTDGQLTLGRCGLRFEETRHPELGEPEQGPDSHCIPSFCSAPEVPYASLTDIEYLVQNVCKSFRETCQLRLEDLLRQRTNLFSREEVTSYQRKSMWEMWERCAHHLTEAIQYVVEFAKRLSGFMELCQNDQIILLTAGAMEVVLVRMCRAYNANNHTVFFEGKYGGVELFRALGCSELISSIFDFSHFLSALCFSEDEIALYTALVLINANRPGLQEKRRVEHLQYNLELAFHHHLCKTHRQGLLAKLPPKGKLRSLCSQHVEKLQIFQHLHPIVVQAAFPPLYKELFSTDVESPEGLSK

The molecules below were run against Nuclear receptor ROR-gamma (Mus musculus) (UniProt P51450) (assay: qHTS for inhibitors of ROR gamma transcriptional activity). Conditions: Drosophila S2 Gal4-RORgamma UAS-luciferase reporter, 20 h; series mostly up to 53.6 µM.
In short: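 Schneider cells (Drosophila), stable Gal4 DBD–ROR gamma + UAS-luc; 1 hr cmpd preincubation; Cu2+ induction 700 uM final; 20 hr ambient; luminescence.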
Also: nearly all actives have a fitted effect of over 60% in size.
Potency is read from the fitted curve at half-maximal effect.

| SMILES | Potency |
| --- | --- |
| CN1C(=O)c2ccc(C(=O)Nc3nccs3)cc2C1=O | inconclusive: 35.5 µM [inhibitor, single point] |
| Cc1ccc(C(C)NC(=S)NC2CCCCC2)cc1C (stereo not given) | active: 2.51 µM |
| COCCCN1C(=O)c2[nH]nc(-c3ccccc3O)c2C1c1ccc(Cl)cc1 (stereo not given) | inconclusive: 22.4 µM [inhibitor, single point] |
| CCOC(=O)c1sc(NC(=O)c2ccc(S(=O)(=O)N(C)C)cc2)nc1C | active: 0.251 µM |
| CN1Cc2c(N)cccc2[C@H](c2ccccc2)C1 | inactive |
| COc1ccc(/C=N/NC(=O)c2ccncc2)cc1CSc1nc2ccccc2s1 | active: 7.08 µM |
| Cc1cc(C)c(C)c(OCC(O)CN2CCN(c3ccccn3)CC2)c1 (stereo not given) | inactive |
| Cc1ccc(NC(=O)O/N=C/c2ccc(N(C)C)cc2)cc1 | inconclusive: 20 µM [inhibitor, single point] |
| O=C(Nc1ccc(NC(=O)c2sc3ccccc3c2Cl)cc1Cl)c1ccco1 | active: 10 µM |
| Cn1c2ccccc2c2nnc(SCC(N)=O)nc21 | inactive |
| Cc1ccc(C(=O)NCC(=O)OCC(=O)c2cc(C)n(Cc3ccco3)c2C)cc1 | inconclusive: 2.51 µM [activator, partial curve] |
| CC(=O)c1cccc(N(C(=O)CNC(=O)c2cccs2)C(C(=O)NCC2CCCO2)c2ccccc2)c1 (stereo not given) | inactive |
| CCOC(=O)c1c(S(=O)(=O)N2CCc3ccccc32)c(C)n(C)c1C | inactive |
| CC(=O)c1sc(Nc2ccccn2)nc1C | inconclusive: 2.51 µM [activator, partial curve, poor fit] |
| COc1cccc2c1C(=O)c1c(O)c3c(c(O)c1C2=O)C[C@](O)(C(=O)CO)C[C@H]3O[C@@H]1C[C@H](N)[C@H](O)[C@H](C)O1 | active: 1.12 µM |
| O=S(=O)(c1ccc(F)cc1)N1CCN(S(=O)(=O)c2cccs2)CC1 | inactive |
| O=C(CSc1ccc(-c2ccco2)nn1)Nc1ccc(F)cc1F | inactive |
| C/C(=N\NC(=O)c1c(C)nc2ccccn12)c1ccccc1F | inconclusive: 35.5 µM [inhibitor, single point] |
| Cc1cccc(S(=O)(=O)CC(=O)Nc2nc(-c3ccccc3)cs2)c1 | inconclusive: 12.6 µM [activator, single point] |
| CCCCN(C(=O)CCC(=O)Nc1cc(C)on1)C(C(=O)NC1CCCC1)c1cccc(OC)c1 (stereo not given) | inactive |
| COc1ccc(Cl)cc1NC(=O)CN(C)CC(=O)Nc1ccc(Br)cc1 | inconclusive: 14.1 µM [activator, single point] |
| COc1cc(-c2ccc(NC(=O)CN3CCC(C)CC3)c(OC)c2)ccc1NC(=O)CN1CCC(C)CC1 | inconclusive: 6.31 µM [activator, single point] |
| COC(=O)c1cc2sccc2n1Cc1nc(-c2ccc(OC)cc2)oc1C | inconclusive: 35.5 µM [inhibitor, single point] |
| COc1cccc(Cn2c(=O)c(-c3cn(C)c4ccccc34)nc3cnc(N4CCOCC4)nc32)c1 | inactive |
| C=CCNC(=S)Nc1nc2c(cc1C(=O)OCC)COC(C)(C)C2 | active: 10 µM |

| SMILES | Potency |
| --- | --- |
| C=CCn1c(SCC(=O)Nc2ccc(Br)cc2)nc(O)c(CC)c1=O | inconclusive: 35.5 µM [inhibitor, single point] |
| Cc1cc(N2CCN(CC(O)C(F)(F)F)CC2)c2ccccc2n1 (stereo not given) | inactive |
| COc1ccc(-c2nc(CS(=O)CC(=O)NCc3ccc(F)cc3)c(C)o2)cc1 (stereo not given) | inconclusive: 12.6 µM [inhibitor, single point] |
| COc1ccc(CNC(=O)c2c(-c3c(F)cccc3Cl)noc2C)cc1 | inactive |
| CNC(=S)N/N=C(\C)c1ccc(Cl)s1 | active: 0.398 µM |
| CC(C)C(c1nnnn1Cc1cccs1)N1CCN(c2ccccc2)CC1 (stereo not given) | inconclusive: 14.1 µM [activator, single point] |
| CC(=O)c1nc2ccccc2n1Cc1ccccc1 | inactive |
| Cc1ccc(C(C(=O)NC2CCCC2)N(Cc2ccc3c(c2)OCO3)C(=O)Cc2cccs2)cc1 (stereo not given) | inconclusive: 14.1 µM [inhibitor, single point] |
| CCn1c(N2CCN(C(=O)NC3CCCCC3)CC2)nc2ccccc21 | inconclusive: 0.0355 µM [activator, full curve, poor fit] |
| O=C(CNC(=O)c1ccco1)NCC(=O)OCC(=O)c1ccc(Cl)c([N+](=O)[O-])c1 | inconclusive: 8.91 µM [inhibitor, partial curve] |
| Cc1sc2nc(C(C)C)nc(SCC(=O)NCc3ccco3)c2c1C | active: 5.01 µM |
| CCCSc1nsc(NC(=O)C(c2ccccc2)c2ccccc2)n1 | inactive |
| COc1cccc(/C=N/Nc2nc(N3CCCC3)nc(N3CCCC3)n2)c1O | active: 10 µM |
| Fc1cnc(N/N=C/c2ccc(-c3ccc(Br)cc3)o2)nc1N1CCOCC1 | inconclusive: 7.94 µM [inhibitor, partial curve, poor fit] |
| C=CCN1C=CC(=CC=C(C#N)C#N)C=C1 | inconclusive: 20 µM [activator, single point] |
| Cc1ccccc1CSc1nnc(-c2ccncc2)n1C | inactive |
| OCC1C2c3ccccc3C(c3ccccc32)C1CO (stereo not given) | inconclusive: 35.5 µM [activator, single point] |
| Cc1cc(/C=N/NC(=O)c2cccc(F)c2)c(C)n1-c1ccccc1 | active: 5.62 µM |
| O=C(/C=C/c1cccs1)c1cc(Cl)ccc1O | inactive |
| Cc1cc2nc(C)c(Cc3ccccc3)c(=O)n2[nH]1 | inconclusive: 12.6 µM [inhibitor, single point] |
| CCOC(=O)N1CCN(Cc2nc3cc([N+](=O)[O-])ccc3n2C)CC1 | inactive |
| Cc1ccc(Cc2cnc(NC(=O)c3cccs3)s2)cc1 | active: 3.55 µM |
| Cc1ccc(C)c(NC(=S)N(CCc2nc3cc(C)c(C)cc3[nH]2)Cc2cccnc2)c1 | inconclusive: 15.8 µM [inhibitor, single point] |
| c1ccc(Nc2nc3ccccc3o2)cc1 | inconclusive: 35.5 µM [inhibitor, single point] |
| Clc1cccc(Nc2c3c(nc4ncnn24)CCC3)c1 | inconclusive: 35.5 µM [inhibitor, single point] |

3 entries from above in a different format:
SMILES | Potency
COCCCN1C(=O)c2[nH]nc(-c3ccccc3O)c2C1c1ccc(Cl)cc1 (stereo not given) | inconclusive: 22.4 µM [inhibitor, single point]
CCOC(=O)c1sc(NC(=O)c2ccc(S(=O)(=O)N(C)C)cc2)nc1C | active: 0.251 µM
CN1Cc2c(N)cccc2[C@H](c2ccccc2)C1 | inactive
